{"source": "patent US5654290A", "about": "“Polyunsaturated fatty acid based drugs” (Institut National de la Sante et de la Recherche Medicale, priority 1992, dated 1997)", "origin": "cited, not measured here", "key": {"[1]": {"test_system": "platelets", "details": "cited from earlier work"}, "[2]": {"test_system": "TXA2 /PGH2 receptor", "details": "cited from earlier work"}, "[3]": {"test_system": "platelets", "details": "concentrations which do not bring the TXA2/PGH2 receptor into play; cited from earlier work"}, "[4]": {"test_system": "platelets", "details": "concentrations which do not bring the TXA2/PGH2 receptor into play; cited from earlier work", "remark": "listed apart in the source"}, "[5]": {"test_system": "alpha2 -adrenergic receptor", "details": "platelet membranes; cited from earlier work"}, "[6]": {"test_system": "TXA2 /PGH2 receptor", "details": "cited from earlier work", "remark": "listed apart in the source"}, "[7]": {"details": "incorporation in vitro into the platelet lipid reserves, by means of albumin"}}, "note": "At least one structure is not confirmed: it was looked up by name or label, or the drawing left a doubt.", "data": [{"smiles": "CC/C=C\\C/C=C\\C/C=C\\C/C=C\\C/C=C\\C/C=C\\CCC(=O)O", "note": "[non-esterified DHA, docosahexaenoic acid]", "values": [{"measurement": "aggregability of the platelets in response to U 46.619", "setting": "[1]; [7]", "result": "loss of aggregability of the platelets in response to U 46.619"}, {"measurement": "inhibition of platelet aggregation induced by U 46.619", "setting": "[1]; non-esterified fatty acid", "result": "competitively inhibit platelet aggregation induced by U 46.619"}, {"measurement": "affinity of U 46.619 for its receptor", "setting": "[2]; [7]", "result": "decrease in the affinity of the agonist for its receptor"}, {"measurement": "inhibition of specific binding of U 46.619 to washed platelets", "setting": "[2]; non-esterified fatty acid", "result": "competitively inhibit"}, {"measurement": "effect on platelet aggregation induced by thrombin", "setting": "[3]", "result": "none of these fatty acids affects the platelet aggregation"}, {"measurement": "effect on platelet aggregation induced by ionophore A 23187", "setting": "[4]", "result": "none of these fatty acids affects the platelet aggregation"}, {"measurement": "effect on binding of yohimbine to alpha2-adrenergic receptor", "setting": "[5]", "result": "do not modify binding of yohimbine"}, {"measurement": "relative effectiveness on the TXA2 /PGH2 receptor", "setting": "[6]; 22:6n-3 vs 20:5n-3", "result": "more effective than 20:5n-3"}, {"measurement": "alteration of the TXA2 /PGH2 receptor", "setting": "[6]; whole platelets or solubilized platelet membranes", "result": "specifically alter the TXA2 /PGH2 receptor"}]}]}
